Drawing on paper PMC11960969, “Mdga2 deficiency leads to an aberrant activation of BDNF/TrkB signaling that underlies autism-relevant synaptic and behavioral changes in mice” (PLOS Biology, 2025), this text covers binding for 1 substance.

Results are given in words; binding and its absence hold for the method and conditions named. Binding seen in cells or lysates may run through a third protein.

The target of this test is T1, MDGA2 (MAM domain containing glycosylphosphatidylinositol anchor 2), endogenous mouse (mouse (endogenous in mouse brain)) (UniProt P60755).
T1 sequence: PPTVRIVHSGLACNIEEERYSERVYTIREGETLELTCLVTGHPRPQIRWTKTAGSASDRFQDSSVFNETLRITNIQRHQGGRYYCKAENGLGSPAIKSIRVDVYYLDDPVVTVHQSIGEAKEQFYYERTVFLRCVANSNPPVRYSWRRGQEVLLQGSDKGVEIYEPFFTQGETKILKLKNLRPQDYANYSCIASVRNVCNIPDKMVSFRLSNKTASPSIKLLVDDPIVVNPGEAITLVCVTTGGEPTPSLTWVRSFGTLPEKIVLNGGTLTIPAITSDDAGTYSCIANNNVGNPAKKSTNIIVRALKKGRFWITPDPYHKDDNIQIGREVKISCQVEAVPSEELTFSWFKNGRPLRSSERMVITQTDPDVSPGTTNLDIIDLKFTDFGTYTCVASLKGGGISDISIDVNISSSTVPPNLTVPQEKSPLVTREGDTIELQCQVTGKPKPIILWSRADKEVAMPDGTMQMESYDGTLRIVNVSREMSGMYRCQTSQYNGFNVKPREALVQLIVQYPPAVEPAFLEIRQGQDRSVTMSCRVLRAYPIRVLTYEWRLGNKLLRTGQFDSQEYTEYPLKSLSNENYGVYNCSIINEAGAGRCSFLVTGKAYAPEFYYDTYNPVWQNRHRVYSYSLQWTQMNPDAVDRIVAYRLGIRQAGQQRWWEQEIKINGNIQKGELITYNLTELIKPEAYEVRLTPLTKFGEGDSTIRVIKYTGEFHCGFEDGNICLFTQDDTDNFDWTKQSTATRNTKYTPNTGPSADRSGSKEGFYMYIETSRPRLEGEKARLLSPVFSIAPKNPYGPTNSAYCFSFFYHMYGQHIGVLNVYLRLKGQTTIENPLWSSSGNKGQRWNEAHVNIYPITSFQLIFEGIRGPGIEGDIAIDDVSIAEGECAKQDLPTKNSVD
The test can be described thus: co-IP; WT mouse brain lysates, IP with an anti-MDGA2 antibody or control IgG, immunoblot. For orientation: A western blot detects proteins with antibodies after separation by electrophoresis.

For “mature BDNF (mBDNF), endogenous mouse (ligand)”, the binding entry was “no binding”.
